Results reported in patent US11976092B2, “RNA nanostructures, methods of making, and uses thereof” (Ohio State Innovation Foundation, priority 2018, dated 2024).
Converted amounts (≈) assume the structure as drawn.

Tests used:
[1] = cited from earlier work
[2] = 1 mM in DEPC H2O

appearance of solution (water solubility) [2]: cloudy solution
SMILES: CC(=O)O[C@H]1C(=O)[C@@]2(C)[C@H]([C@H](OC(=O)c3ccccc3)[C@]3(O)C[C@H](OC(=O)[C@H](O)[C@@H](NC(=O)c4ccccc4)c4ccccc4)C(C)=C1C3(C)C)[C@]1(OC(C)=O)CO[C@@H]1C[C@@H]2O [Paclitaxel]
water solubility [1]: ~0.4 µg/mL (≈ 0.468 µM)
